PubChem BioAssay AID588497 (NMMLSC, 2011)
Hit rate of the full screen: of about 360,000 compounds, about 780 (0.22%) were called active. The inconclusive results got no clear call from the source; some entries with a clear call stand among them for comparison. Cut-off read from the data, not from the text of the source: active = inhibition above about 35% (passing the limit was not always enough); inconclusive = no clear call, values can overlap the other calls.

Test system: Botulinum neurotoxin type F light chain protease (Clostridium botulinum)
Experiment: BoNT/F light chain protease inhibitors, primary screen, biochemical, flow cytometry, MLPCN library (AID 588497); note: plate controls were buffer without enzyme for full effect and enzyme alone for no effect
Settings: Multiplex microsphere protease cleavage assay, at 10 µM, hits give high values

SMILES | inhibition
CCOC(=O)C1=C(COC(=O)COc2ccc(C(C)=O)cc2)NC(=O)NC1C (configuration not stated) | inconclusive: -8.6%
COC(=O)c1nnn(Cc2ccccc2)c1N | inactive: -4.4%
COc1ccc(/C=N/NC(=O)c2cc(C34CC5CC(CC(C5)C3)C4)[nH]n2)cc1OC | active: 39.6%
CCOC(=O)/C(=C/C1=CC(=C/N(C)C)/C(=O)O1)C(C)=O | active: 36.3%
Cc1ccc2c(c1)c1c3n2CCCN(Cc2ccccc2)C3CCC1 (configuration not stated) | inactive: -11.4%
Cc1ccc(-n2ccc(=O)c(C(=O)O)n2)cc1 | inconclusive: -3%
CCCCNCC1CCCO1 (configuration not stated) | inconclusive: 17.5%
COc1cc(/C=N/NC(=O)c2c(C)nc3ccc(Cl)cn23)cc(OC)c1OC | inactive: 15.8%
Cc1ccc(NC(=O)CCN2CCN(C)CC2)cc1 | inconclusive: 28.9%
COc1cc(Br)c(CN2CCCN(C)CC2)cc1OC | inconclusive: -13.6%
CCNc1sc(C(=O)c2cccs2)c(N)c1-c1nc2ccccc2s1 | inactive: -19.5%
CN(Cc1ccccc1)C(=O)CN1CCCC1=O | inconclusive: -2.6%
COc1ccc(S(=O)(=O)Nc2ccc(Nc3ccccc3)cc2)cc1 | inconclusive: -83.5%
Cc1cc(OCC(=O)OC(C)C)c2c3c(c(=O)oc2c1)CCCC3 | inactive: 0.5%
CCCCc1nc(S(=O)(=O)c2ccc(Cl)cc2)c(N2CCOCC2)o1 | inconclusive: 16.7%
O=C(N/N=C/c1ccco1)c1ccc(OCc2ccccc2)cc1 | inconclusive: -69.2%
Cc1cc(C(=O)Nn2cnnc2)ccc1[N+](=O)[O-] | inconclusive: 15.7%
COCCCNC(=O)c1cc(S(=O)(=O)NCCCN2CCCC2=O)ccc1Cl | inconclusive: 1.4%
CCN1CCc2c(sc3c2c(NCc2ccco2)nc2nnnn23)C1 | inactive: -64%
CCOC(=O)C1=NNC2(CC(=O)N(c3cc(C)cc(C)c3)C2=O)C1 (configuration not stated) | inactive: -11.1%
Cn1c(SCC(=O)O)nc2sc3c(c2c1=O)CCC3 | inconclusive: 3.2%
CCn1c2ccccc2c2nnc(SCC(N)=O)nc21 | inactive: -4.1%
CCOC(=O)N1CCc2c(sc3c2C(=O)NC(c2ccccc2)N3)C1 (configuration not stated) | inconclusive: 5.3%
COc1ccc(CCNC(=O)CCCn2c(=S)[nH]c3ccsc3c2=O)cc1OC | inactive: 2.5%

SMILES | inhibition
O=C(C1CC1)N1N=C(c2ccccc2)CC1(O)C(F)(F)C(F)(F)F (configuration not stated) | inconclusive: 34.1%
CC(=O)N1N=C(c2cccc(NS(C)(=O)=O)c2)CC1c1ccc2c(c1)OCO2 (configuration not stated) | inconclusive: -18.4%
Cc1ccc(NS(=O)(=O)c2ccc(C(=O)NCc3ccccn3)cc2)cc1 | inactive: 2.5%
COc1cc2c(cc1OC)CN(CC(=O)Nc1ccc(F)cc1)C(C(=O)O)C2 (configuration not stated) | inactive: 24.4%
COc1ccc(NC(=O)CSc2nnc(-c3ccc(C)cc3)n2N)cc1 | inactive: -4.6%
Cc1ccc(C)c(N2CCN(S(=O)(=O)c3ccc4c(c3)CC(=O)N4C)CC2)c1 | inactive: 2.9%
COC(=O)CSc1nc2ccc(C)cc2cc1C#N | inactive: 0.4%
O=c1c2c([N+](=O)[O-])cc([N+](=O)[O-])cc2sn1Cc1ccccc1 | active: 55.7%
CCOc1ccc(OCC(=O)N2CCC3(CC2)CC(=O)c2ccccc2O3)cc1 | inactive: 25.3%
O=C1NCCC/C1=N/Nc1cc(F)ccc1F | inconclusive: -10.7%
CN(CCCCOc1ccc(F)cc1)Cc1ccccc1 | inconclusive: -46.7%
Cc1c(C(=O)NCc2ccccc2)sc(=O)n1Cc1ccccc1F | inactive: -3.2%
COc1ccc(C(=O)NCC(=O)OCC(=O)NC(=O)NC2CCCCC2)cc1OC | inconclusive: 5.6%
CCOc1cc(CNCC(O)c2ccccc2)cc(Cl)c1OC (configuration not stated) | active: 41.4%
Cc1nn2c3ccccc3n(Cc3ccccc3)c2nc1=O | inconclusive: -21%
CCOC(=O)C(CCCP(=O)(c1ccccc1)c1ccccc1)(NC(C)=O)C(=O)OCC | inconclusive: -18%
COc1ccc(/C=N/NC(=O)c2sc3nc(C)cc(C)c3c2N)cc1 | inconclusive: -35.8%
COc1ccccc1CN1CCSCC1 | active: 70.8%
CCC1C(=O)Nc2nc(-c3ccccc3)c(-c3ccccc3)n2N=C1C (configuration not stated) | inconclusive: -27.4%
CCOC(=O)c1c(NC(=O)c2ccccc2Br)sc2c1CCc1ccccc1-2 | inactive: 3.6%
O=C(Nc1ccc(F)cc1)C1CC2CCC1C2 (configuration not stated) | inconclusive: -0.3%
Cc1ccc(CC(=O)NC2CCN(C)CC2)cc1 | inconclusive: -0.9%
Cc1ccc(S(=O)(=O)NCCC(=O)NCC(=O)Nc2c(C)cccc2C)cc1C | inconclusive: 2.8%

Rewritten with tabs: four of the compounds above
SMILES	inhibition
COc1ccc(S(=O)(=O)Nc2ccc(Nc3ccccc3)cc2)cc1	inconclusive: -83.5%
Cc1cc(OCC(=O)OC(C)C)c2c3c(c(=O)oc2c1)CCCC3	inactive: 0.5%
CCCCc1nc(S(=O)(=O)c2ccc(Cl)cc2)c(N2CCOCC2)o1	inconclusive: 16.7%
O=C(N/N=C/c1ccco1)c1ccc(OCc2ccccc2)cc1	inconclusive: -69.2%
